# Reference: the supplement of paper PMC8728848
# This is one part of the list.
# What was measured:
# Assay in all cases: glycan array binding signal (z-score within array); higher = stronger binding
# Settings in all cases: glycan notation: IUPAC condensed, linker removed
# [1] = biological target: Neu5Ac(a2-8)Neu5Ac
# Outline: (§1)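 Glycan array data came from 3228 arrays in the Consortium for Functional Glycomics database, and only arrays with an available protein sequence were kept. Glycan names were put into IUPAC-condensed notation, and columns mapping to the same glycan were averaged. The binding signal is a within-array Z-score, averaged across arrays of one protein sequence run at different concentrations or buffers and across linkers. A negative Z-score can be read as non-binding.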
# [2] = biological target: Neu5Ac(a2-8)Neu5Ac(a2-3)Gal(b1-3)GalNAc(b1-4)[Neu5Ac(a2-3)]Gal(b1-4)Glc
# Outline: as §1
# [3] = biological target: Neu5Ac(a2-8)Neu5Ac(a2-3)Gal(b1-3)GalNAc(b1-4)[Neu5Ac(a2-8)Neu5Ac(a2-3)]Gal(b1-4)Glc
# Outline: as §1
# [4] = biological target: Neu5Ac(a2-8)Neu5Ac(a2-3)Gal(b1-4)Glc
# Outline: as §1
# [5] = biological target: Neu5Ac(a2-8)Neu5Ac(a2-3)Gal(b1-4)GlcNAc
# Outline: as §1
# [6] = biological target: Neu5Ac(a2-8)Neu5Ac(a2-3)[Gal(b1-3)GalNAc(b1-4)]Gal(b1-4)Glc
# Outline: as §1
# [7] = biological target: Neu5Ac(a2-8)Neu5Ac(a2-3)[GalNAc(b1-4)]Gal(b1-4)Glc
# Outline: as §1
# [8] = biological target: Neu5Ac(a2-8)Neu5Ac(a2-8)Neu5Ac
# Outline: as §1
# [9] = biological target: Neu5Ac(a2-8)Neu5Ac(a2-8)Neu5Ac(a2-3)Gal(b1-4)Glc
# Outline: as §1
# [10] = biological target: Neu5Ac(a2-8)Neu5Ac(a2-8)Neu5Ac(a2-3)[Gal(b1-3)GalNAc(b1-4)]Gal(b1-4)Glc
# Outline: as §1
# [11] = biological target: Neu5Ac(a2-8)Neu5Ac(a2-8)Neu5Ac(a2-3)[GalNAc(b1-4)]Gal(b1-4)Glc
# Outline: as §1
# [12] = biological target: Neu5Ac(a2-8)Neu5Ac(a2-8)Neu5Ac(a2-8)Neu5Ac(a2-3)[GalNAc(b1-4)]Gal(b1-4)Glc
# Outline: as §1
# [13] = biological target: Neu5Ac(a2-8)Neu5Gc(a2-3)Gal(b1-4)GlcNAc
# Outline: as §1
# [14] = biological target: Neu5Ac(b2-6)Gal(b1-4)GlcNAc
# Outline: as §1
# [15] = biological target: Neu5Ac(b2-6)GalNAc
# Outline: as §1
# [16] = biological target: Neu5Ac9Ac(a2-3)Gal(b1-3)GlcNAc
# Outline: as §1
# [17] = biological target: Neu5Ac9Ac(a2-3)Gal(b1-4)GlcNAc
# Outline: as §1
# [18] = biological target: Neu5Ac9Ac(a2-6)Gal(b1-4)GlcNAc
# Outline: as §1
# [19] = biological target: Neu5Gc(a2-3)Gal(b1-3)GlcNAc
# Outline: as §1
# [20] = biological target: Neu5Gc(a2-3)Gal(b1-3)[Fuc(a1-4)]GlcNAc
# Outline: as §1
# [21] = biological target: Neu5Gc(a2-3)Gal(b1-4)Glc
# Outline: as §1
# [22] = biological target: Neu5Gc(a2-3)Gal(b1-4)GlcNAc
# Outline: as §1
# [23] = biological target: Neu5Gc(a2-3)Gal(b1-4)GlcNAc(b1-3)Gal(b1-4)GlcNAc(b1-2)Man(a1-3)[Neu5Gc(a2-3)Gal(b1-4)GlcNAc(b1-3)Gal(b1-4)GlcNAc(b1-2)Man(a1-6)]Man(b1-4)GlcNAc(b1-4)GlcNAc
# Outline: as §1
# [24] = biological target: Neu5Gc(a2-3)Gal(b1-4)[Fuc(a1-3)]GlcNAc
# Outline: as §1
# [25] = biological target: Neu5Gc(a2-6)Gal(b1-4)GlcNAc
# Outline: as §1
# [26] = biological target: Neu5Gc(a2-6)GalNAc
# Outline: as §1
# [27] = biological target: Neu5Gc(a2-8)Neu5Ac(a2-3)Gal(b1-4)GlcNAc
# Outline: as §1
# [28] = biological target: Neu5Gc(a2-8)Neu5Gc(a2-3)Gal(b1-4)GlcNAc
# Outline: as §1
# [29] = biological target: Neu5Gc(a2-8)Neu5Gc(a2-3)Gal(b1-4)GlcNAc(b1-3)Gal(b1-4)GlcNAc
# Outline: as §1
# [30] = biological target: Neu5Gc(a2-8)Neu5Gc(a2-6)Gal(b1-4)GlcNAc
# Outline: as §1
# [31] = biological target: Neu5Gc(b2-6)Gal(b1-4)GlcNAc
# Outline: as §1
binder,measurement,setting,value
EULS2 M3 (Oryza sativa) (protein) MVYCRANPNYAMTARNGAVVLAPANPKDEYQHWIKDMRWSTSIKDEEGYPAFALVNKATGQAIKHSLGQSHPVRLVPYNPEVMDESVLWTESRDVGNGFRCIRMVNNIYLNFDAFHGDKYHGGVRDGTDIVLWKLCEGDSLRWKIQPYYILEQKLISEEDLNSAVDHHHHHH,glycan array binding signal (z-score),[1],0.636
same,glycan array binding signal (z-score),[2],1.61
same,glycan array binding signal (z-score),[3],-0.271
same,glycan array binding signal (z-score),[4],-0.003
same,glycan array binding signal (z-score),[5],-0.37
same,glycan array binding signal (z-score),[6],-0.341
same,glycan array binding signal (z-score),[7],-0.193
same,glycan array binding signal (z-score),[8],0.795
same,glycan array binding signal (z-score),[9],-0.791
same,glycan array binding signal (z-score),[10],-0.444
same,glycan array binding signal (z-score),[11],-0.028
same,glycan array binding signal (z-score),[12],-0.424
same,glycan array binding signal (z-score),[13],-0.084
same,glycan array binding signal (z-score),[14],-0.056
same,glycan array binding signal (z-score),[15],-0.191
same,glycan array binding signal (z-score),[16],0.181
same,glycan array binding signal (z-score),[17],-0.466
same,glycan array binding signal (z-score),[18],-0.602
same,glycan array binding signal (z-score),[19],-0.108
same,glycan array binding signal (z-score),[20],-0.291
same,glycan array binding signal (z-score),[21],-0.135
same,glycan array binding signal (z-score),[22],0.145
same,glycan array binding signal (z-score),[23],-0.039
same,glycan array binding signal (z-score),[24],0.074
same,glycan array binding signal (z-score),[25],-0.469
same,glycan array binding signal (z-score),[26],-0.738
same,glycan array binding signal (z-score),[27],-0.653
same,glycan array binding signal (z-score),[28],-0.212
same,glycan array binding signal (z-score),[29],0.089
same,glycan array binding signal (z-score),[30],-0.549
same,glycan array binding signal (z-score),[31],0.7

# Random excerpt: 2 entries already listed.
binder,measurement,setting,value
EULS2 M3 (Oryza sativa) (protein) MVYCRANPNYAMTARNGAVVLAPANPKDEYQHWIKDMRWSTSIKDEEGYPAFALVNKATGQAIKHSLGQSHPVRLVPYNPEVMDESVLWTESRDVGNGFRCIRMVNNIYLNFDAFHGDKYHGGVRDGTDIVLWKLCEGDSLRWKIQPYYILEQKLISEEDLNSAVDHHHHHH,glycan array binding signal (z-score),[5],-0.37
same,glycan array binding signal (z-score),[8],0.795
